Publication PMC8764063
These are yes or no findings as the source states them, for the method shown. In cells and extracts the contact can be indirect. Some results given as binding are weak or reduced against the parent protein; the word gives no strength.

Amino acid sequences for entries named in this document (tags omitted).
UniProt Q9H1D9: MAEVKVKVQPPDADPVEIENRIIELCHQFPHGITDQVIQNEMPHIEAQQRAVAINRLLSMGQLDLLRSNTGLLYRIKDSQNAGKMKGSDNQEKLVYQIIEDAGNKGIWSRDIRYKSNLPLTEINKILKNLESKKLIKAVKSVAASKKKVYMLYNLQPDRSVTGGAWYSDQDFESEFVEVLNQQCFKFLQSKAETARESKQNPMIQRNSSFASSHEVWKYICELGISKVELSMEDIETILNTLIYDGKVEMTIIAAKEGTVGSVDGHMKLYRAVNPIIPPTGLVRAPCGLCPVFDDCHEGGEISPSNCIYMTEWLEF
UniProt Q9Y2Y1: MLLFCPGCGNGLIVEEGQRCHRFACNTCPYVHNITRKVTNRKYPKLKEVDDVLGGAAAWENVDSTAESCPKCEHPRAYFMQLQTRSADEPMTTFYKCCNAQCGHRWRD
UniProt Q9BUI4: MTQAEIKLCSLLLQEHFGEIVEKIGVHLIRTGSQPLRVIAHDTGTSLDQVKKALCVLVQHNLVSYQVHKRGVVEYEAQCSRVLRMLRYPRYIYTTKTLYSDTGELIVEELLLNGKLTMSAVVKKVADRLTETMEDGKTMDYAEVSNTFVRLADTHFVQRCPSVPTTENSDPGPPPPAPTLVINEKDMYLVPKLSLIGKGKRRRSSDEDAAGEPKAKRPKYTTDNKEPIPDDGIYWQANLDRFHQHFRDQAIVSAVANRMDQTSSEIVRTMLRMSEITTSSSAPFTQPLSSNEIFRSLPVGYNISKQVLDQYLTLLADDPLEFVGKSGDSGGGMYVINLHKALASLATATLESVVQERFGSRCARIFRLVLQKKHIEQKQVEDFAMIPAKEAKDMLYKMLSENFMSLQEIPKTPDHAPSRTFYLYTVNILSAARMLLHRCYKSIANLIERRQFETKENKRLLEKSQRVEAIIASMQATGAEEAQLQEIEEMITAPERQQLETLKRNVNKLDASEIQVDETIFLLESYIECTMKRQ

Legend:
FLAG-POLR3F (human) = FLAG-POLR3F (human) (UniProt Q9H1D9); assay: co-IP; Pol III complex purified by FLAG IP from U2OS cells stably expressing FLAG-POLR3F, with or without ADP-ribosylation by tPARP1 in vitro; subunits detected by Western blot with antibodies against the individual subunits; IgG as control IP
[1] = biological target: POLR3F (human (endogenous in U2OS)) (UniProt Q9H1D9); assay: co-IP; IP of POLR3F from the cytoplasmic fraction of U2OS cells treated with or without poly(dA-dT) (5 ug/ml, six hours); subunits detected by immunoblot

Molecule | binding (FLAG-POLR3F (human)) | binding [1]
POLR3K (from UniProt Q9Y2Y1 1-108) | binds | binds
POLR3C (from UniProt Q9BUI4 1-534) | binds | binds
POLR3A (protein, UniProt O14802 1-1390) MVKEQFRETDVAKKISHICFGMKSPEEMRQQAHIQVVSKNLYSQDNQHAPLLYGVLDHRMGTSEKDRPCETCGKNLADCLGHYGYIDLELPCFHVGYFRAVIGILQMICKTCCHIMLSQEEKKQFLDYLKRPGLTYLQKRGLKKKISDKCRKKNICHHCGAFNGTVKKCGLLKIIHEKYKTNKKVVDPIVSNFLQSFETAIEHNKEVEPLLGRAQENLNPLVVLNLFKRIPAEDVPLLLMNPEAGKPSDLILTRLLVPPLCIRPSVVSDLKSGTNEDDLTMKLTEIIFLNDVIKKHRISGAKTQMIMEDWDFLQLQCALYINSELSGIPLNMAPKKWTRGFVQRLKGKQGRFRGNLSGKRVDFSGRTVISPDPNLRIDEVAVPVHVAKILTFPEKVNKANINFLRKLVQNGPEVHPGANFIQQRHTQMKRFLKYGNREKMAQELKYGDIVERHLIDGDVVLFNRQPSLHKLSIMAHLARVKPHRTFRFNECVCTPYNADFDGDEMNLHLPQTEEAKAEALVLMGTKANLVTPRNGEPLIAAIQDFLTGAYLLTLKDTFFDRAKACQIIASILVGKDEKIKVRLPPPTILKPVTLWTGKQIFSVILRPSDDNPVRANLRTKGKQYCGKGEDLCANDSYVTIQNSELMSGSMDKGTLGSGSKNNIFYILLRDWGQNEAADAMSRLARLAPVYLSNRGFSIGIGDVTPGQGLLKAKYELLNAGYKKCDEYIEALNTGKLQQQPGCTAEETLEALILKELSVIRDHAGSACLRELDKSNSPLTMALCGSKGSFINISQMIACVGQQAISGSRVPDGFENRSLPHFEKHSKLPAAKGFVANSFYSGLTPTEFFFHTMAGREGLVDTAVKTAETGYMQRRLVKSLEDLCSQYDLTVRSSTGDIIQFIYGGDGLDPAAMEGKDEPLEFKRVLDNIKAVFPCPSEPALSKNELILTTESIMKKSEFLCCQDSFLQEIKKFIKGVSEKIKKTRDKYGINDNGTTEPRVLYQLDRITPTQVEKFLETCRDKYMRAQMEPGSAVGALCAQSIGEPGTQMTLKTFHFAGVASMNITLGVPRIKEIINASKAISTPIITAQLDKDDDADYARLVKGRIEKTLLGEISEYIEEVFLPDDCFILVKLSLERIRLLRLEVNAETVRYSICTSKLRVKPGDVAVHGEAVVCVTPRENSKSSMYYVLQFLKEDLPKVVVQGIPEVSRAVIHIDEQSGKEKYKLLVEGDNLRAVMATHGVKGTRTTSNNTYEVEKTLGIEAARTTIINEIQYTMVNHGMSIDRRHVMLLSDLMTYKGEVLGITRFGLAKMKESVLMLASFEKTADHLFDAAYFGQKDSVCGVSECIIMGIPMNIGTGLFKLLHKADRDPNPPKRPLIFDTNEFHIPLVT | binds | binds
